# Measurements published in PMC11207566.
# Sequences of proteins named here, by UniProt entry; tags and fusion partners are left off.
# UniProt A0A5J6CYG6, entry or part of it: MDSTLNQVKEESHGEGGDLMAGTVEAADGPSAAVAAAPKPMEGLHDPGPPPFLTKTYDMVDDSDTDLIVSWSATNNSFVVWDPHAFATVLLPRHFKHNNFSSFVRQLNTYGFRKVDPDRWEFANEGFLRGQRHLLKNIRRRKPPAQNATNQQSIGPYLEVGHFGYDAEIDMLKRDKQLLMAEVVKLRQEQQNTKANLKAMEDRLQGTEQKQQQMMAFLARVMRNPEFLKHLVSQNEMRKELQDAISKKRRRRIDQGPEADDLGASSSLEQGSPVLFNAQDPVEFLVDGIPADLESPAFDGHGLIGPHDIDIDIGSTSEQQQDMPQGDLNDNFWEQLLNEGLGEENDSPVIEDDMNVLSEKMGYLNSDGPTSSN
# For at least one entry, the source does not settle the construct or the ends of the probe.
# Target: HSF17 (Zea mays) (UniProt A0A5J6CYG6)
# Test: EMSA
# Conditions: Native-PAGE EMSA, biotin probe, LightShift chemiluminescent kit; pH and temperature not stated; recombinant protein; protein details: His (pET32a, vector-encoded fusion not detailed); label: 5' biotin
sequence,measurement,value
CTTATCTGATTCCAGTTCCACAAGTTTCTCTCTGATTCGAATCCC (double strand) [pDE18-ACAAGTTTCT probe],binding result,binds
